The values that follow are results of earlier work, collected in paper PMC4210246 (PLoS ONE, 2014).

The EC50 is the concentration that produces a half-maximal response.

The target of data set [1] is β2-α1M236W/γ2L-β2-α1M236W receptors. Particulars: read-out: GABA EC50; data reproduced; cited from earlier work.
The target in data set [2] is β2-α1/γ2L-β2-α1 receptors. Particulars: read-out: GABA EC50; data reproduced; cited from earlier work.

Turning to `NCCCC(=O)O` [GABA, γ-Aminobutyric Acid], the EC50 in data set [1] is 1000 nM; in data set [2] it was 36 µM.
